Test results taken from PubChem BioAssay (NCATS).
This list was built around the results that the source calls inconclusive (neither active nor inactive); the mix of calls is not that of the screen. Potencies beside an inconclusive call are fits to weak or partial responses and may not hold up. The source made the active and inactive calls. Calls follow the shape of the dose curve; as a rule, active = well fitted cell-killing curve with a large enough effect; inconclusive = small, poorly fitted or top-dose-only effect, or effect the other way; inactive = no such curve, though single readings can be large or run the other way.

Assay: Quantitative High-Throughput drug screen in 47 multiple myeloma cell lines against the NCATS MIPE library collection: MM1S_ATCC cell viability assay (AID 1918980); also: nearly all actives have a fitted effect of over 45% in size
Conditions: MM1S myeloma viability, CellTiter-Glo ATP luminescence, 48 h; series mostly up to 45.8 µM
Outline: (§1)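 Readout: median RLU from CellTiter-Glo after 5 min at room temperature. Preceding step was 48 h drug treatment of 500 cells/well at 37 °C, 5% CO2, with DMSO-only and media-only control wells.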
Potency is read from the fitted curve at half-maximal effect.

Structure (SMILES)	Potency
Cc1oc(=O)oc1CN1CCN(c2cc3c(cc2F)c(=O)c(C(=O)O)c2n3C(C)S2)CC1 (stereo unspecified)	inconclusive: 6.62 µM [cytotoxic, partial curve, poor fit]
COc1cc(CNC(=O)CCCCC=CC(C)C)ccc1O	inactive
COc1cc2c(c(OC)c1OC)-c1ccc(OC)c(=O)cc1[C@@H](NC(C)=O)CC2	inconclusive: 0.0021 µM [cytotoxic, partial curve, poor fit]
Oc1ccc([C@@H]2Oc3ccc(O)cc3[C@@H]3CCC[C@@H]32)cc1	inconclusive: 37.2 µM [cytotoxic, single point]
N#CC(=C(N)Sc1ccc(N)cc1)c1ccccc1C(F)(F)F	inconclusive: 29.6 µM [cytotoxic, single point]
CCNC(=O)Nc1ccc(Oc2ncnc(N)c2C=NOC)cc1Cl	inconclusive: 0.332 µM [rising, full curve, poor fit]
CN(C)CCN(Cc1ccc(Cl)cc1)c1ccccn1	active: 16.6 µM
CC(=O)N1CCN(c2ccc(OC[C@H]3CO[C@](Cn4ccnc4)(c4ccc(Cl)cc4Cl)O3)cc2)CC1	inconclusive: 16.6 µM [cytotoxic, partial curve, poor fit]
CCN(C)C(=O)Oc1cccc([C@H](C)N(C)C)c1	inactive
CCN(CCO)CCCOc1ccc2c(Nc3cc(CC(=O)Nc4cccc(F)c4)[nH]n3)ncnc2c1	inactive
N#CC(=C(O)c1ccc(Cl)cc1Cl)c1nc2cc(Cl)ccc2c(=O)[nH]1	inactive
CC(c1cc2ccccc2s1)N(O)C(N)=O (stereo unspecified)	inactive
CN1CCC[C@H]1CCO[C@](C)(c1ccccc1)c1ccc(Cl)cc1	active: 23.5 µM
C=CCn1c(=O)c2cnc(Nc3ccc(N4CCN(C)CC4)cc3)nc2n1-c1cccc(C(C)(C)O)n1	inconclusive: 0.372 µM [cytotoxic, full curve, poor fit]
Cn1c(=O)c2c(ncn2CC(O)CO)n(C)c1=O (stereo unspecified)	inactive
N[C@@H](Cc1ccc(O)c(O)c1)C(=O)O	inconclusive: 20.9 µM [cytotoxic, single point]
CON=C(C(=O)N[C@@H]1C(=O)N2C(C(=O)O)=C(Cn3ccc(=N)n3CCO)CS[C@H]12)c1csc(N)n1	inactive
O=C(O)CCc1ccc(NCc2cccc(Oc3ccccc3)c2)cc1	inactive
COc1cccc(Nc2c(C(N)=O)cnc3c(C)cc(S(=O)(=O)c4cccc(C(=O)N(C)C)c4)cc23)c1	inconclusive: 8.12 µM [cytotoxic, partial curve, poor fit]

Assay: Quantitative High-Throughput drug screen in 47 multiple myeloma cell lines against the NCATS MIPE library collection: MM1R_ATCC cell viability assay (AID 1918981); also: nearly all actives have a fitted effect of over 35% in size
Conditions: MM1R multiple myeloma cells, CellTiter-Glo viability, 48 h; series mostly up to 45.8 µM
Outline: as §1

Structure (SMILES)	Potency
CC(C)C[C@H](NC(=O)c1cc2ccccc2s1)C(=O)N1CCN(C(=O)[C@H](CO)NS(=O)(=O)c2ccc(Cl)cc2Cl)CC1	active: 18.7 µM
NCc1c[nH]c(=S)n1[C@H]1CCc2c(F)cc(F)cc2C1	active: 16.6 µM
COc1cc(CNC(=O)CCCCC=CC(C)C)ccc1O	inactive
Nc1cccc(S(=O)(=O)N2CCCN(S(=O)(=O)c3ccc4c(c3)OCCO4)CC2)c1	active: 11.8 µM
Oc1ccc([C@@H]2Oc3ccc(O)cc3[C@@H]3CCC[C@@H]32)cc1	inconclusive: 26.4 µM [cytotoxic, single point]
CC(C)(O)CCc1ccc(OCc2cc(-c3cccc(OC(F)F)c3)c3ncccc3c2)cc1	inconclusive: 0.0059 µM [rising, full curve, poor fit]
CN1c2ccccc2C(=O)N2CCc3c([nH]c4ccccc34)C21 (stereo unspecified)	inactive
CC(=O)N1CCN(c2ccc(OC[C@H]3CO[C@](Cn4ccnc4)(c4ccc(Cl)cc4Cl)O3)cc2)CC1	active: 11.8 µM
CCN(C)C(=O)Oc1cccc([C@H](C)N(C)C)c1	inconclusive: 0.662 µM [rising, full curve]
CCN(CCO)CCCOc1ccc2c(Nc3cc(CC(=O)Nc4cccc(F)c4)[nH]n3)ncnc2c1	inconclusive: 0.0469 µM [cytotoxic, full curve, poor fit]
N#CC(=C(O)c1ccc(Cl)cc1Cl)c1nc2cc(Cl)ccc2c(=O)[nH]1	inactive
CCCCOCCOc1nc(-c2ccc(C(=O)O)c(F)c2)sc1C	inactive
CC(c1cc2ccccc2s1)N(O)C(N)=O (stereo unspecified)	inactive
CN1CCC[C@H]1CCO[C@](C)(c1ccccc1)c1ccc(Cl)cc1	inconclusive: 18.7 µM [cytotoxic, partial curve, poor fit]
Cn1c(=O)c2c(ncn2CC(O)CO)n(C)c1=O (stereo unspecified)	inactive
N[C@@H](Cc1ccc(O)c(O)c1)C(=O)O	inconclusive: 33.2 µM [cytotoxic, single point]
COc1cccc(Nc2c(C(N)=O)cnc3c(C)cc(S(=O)(=O)c4cccc(C(=O)N(C)C)c4)cc23)c1	inconclusive: 5.12 µM [cytotoxic, partial curve, poor fit]
